For one substance, binding results are on record in US20190373867A1.

Sequences of proteins named here, by UniProt entry; tags and fusion partners are left off. A change or cut given only in a name is not applied to a line headed by its entry.
UniProt Q08722: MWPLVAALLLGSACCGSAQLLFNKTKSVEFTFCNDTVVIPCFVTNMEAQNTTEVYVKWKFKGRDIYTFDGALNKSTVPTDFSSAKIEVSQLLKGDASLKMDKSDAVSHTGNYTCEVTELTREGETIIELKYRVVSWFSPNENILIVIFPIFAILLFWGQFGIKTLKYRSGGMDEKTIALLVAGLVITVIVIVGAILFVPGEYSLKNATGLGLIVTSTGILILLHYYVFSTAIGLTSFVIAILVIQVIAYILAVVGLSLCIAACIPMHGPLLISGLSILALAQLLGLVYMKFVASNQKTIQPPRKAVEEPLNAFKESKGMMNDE

Experiment [1] concerns the target T1, endogenous mouse SIRPα of wildtype C57BL/6 mice (NP_031573.2) (mouse (C57BL/6)) (UniProt P97797).
T1 sequence: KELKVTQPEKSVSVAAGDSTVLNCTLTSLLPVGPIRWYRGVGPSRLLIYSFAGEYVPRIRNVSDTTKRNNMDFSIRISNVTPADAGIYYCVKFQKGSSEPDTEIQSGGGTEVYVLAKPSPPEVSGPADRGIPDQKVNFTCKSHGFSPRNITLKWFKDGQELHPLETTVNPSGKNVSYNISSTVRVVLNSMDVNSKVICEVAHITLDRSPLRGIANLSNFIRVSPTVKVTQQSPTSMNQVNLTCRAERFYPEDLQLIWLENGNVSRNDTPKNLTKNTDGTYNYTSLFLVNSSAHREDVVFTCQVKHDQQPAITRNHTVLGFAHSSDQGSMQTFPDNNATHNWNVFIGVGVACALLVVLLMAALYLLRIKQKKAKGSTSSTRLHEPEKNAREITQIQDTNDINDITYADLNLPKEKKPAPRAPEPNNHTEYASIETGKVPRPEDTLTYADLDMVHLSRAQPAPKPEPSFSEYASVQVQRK
The experiment is described as follows: flow cytometry; CD47 protein on peritoneal cavity cells of wildtype C57BL/6 mice, detected with anti-CD47 human antibody and AF647-Anti-hIgG. (A flow cytometer gives signals particle by particle.)

For experiment [2], the target named is humanized SIRPα of B-hSIRPα mice (chimeric human/mouse SIRPα) (chimeric human/mouse) (UniProt P97797). The experiment is described as follows: flow cytometry; CD47 protein on peritoneal cavity cells of B-hSIRPα mice, detected with anti-CD47 human antibody and AF647-Anti-hIgG.

These are yes or no findings as the source states them, for the method shown. Some results given as binding are weak or reduced against the parent protein; the word gives no strength.

Turning to “human CD47 proteins (added to peritoneal cavity cells, Example 16) (from UniProt Q08722 19-139) (ligand)”, the binding result in experiment [1] and in experiment [2] was “binds” each time.
